# Experimental data taken from PubChem BioAssay AID1439 (NMMLSC, 2008).
# By UniProt entry, the sequences of proteins in these tests, tags left out.
# UniProt P09471, whole entry, looked up: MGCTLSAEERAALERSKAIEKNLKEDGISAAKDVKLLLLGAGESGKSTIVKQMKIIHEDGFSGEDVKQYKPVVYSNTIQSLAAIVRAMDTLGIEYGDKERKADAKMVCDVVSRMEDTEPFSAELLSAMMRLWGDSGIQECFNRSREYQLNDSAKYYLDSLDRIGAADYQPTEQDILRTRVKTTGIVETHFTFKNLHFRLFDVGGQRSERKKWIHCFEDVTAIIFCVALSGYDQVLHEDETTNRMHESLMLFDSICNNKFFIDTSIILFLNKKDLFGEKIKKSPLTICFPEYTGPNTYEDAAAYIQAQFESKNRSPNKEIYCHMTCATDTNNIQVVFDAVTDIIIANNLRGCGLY
# Out of some 220,000 compounds screened, about 770 (0.35%) were called active. Inconclusive means that the source gave no clear call. Such entries were picked first, then a sample of the others. Rule as the data show it: active = binding response below about 49% or above about 150%; inconclusive = no clear call, values can overlap the other calls; inactive = in between.
# Biological target: Guanine nucleotide-binding protein G(o) subunit alpha (Homo sapiens) (UniProt P09471)
# Test: RGS7-Galphao binding modulators, primary screen, biochemical, multiplexed bead flow cytometry (AID 1439);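 also: fluorescent Galphao held in activated GDP-AlF4 state binding bead-coupled RGS7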
# Conditions: at 10 µM, actives lie on both sides
row,Compound,binding response (% of control)
1,O/N=C1\CCSc2ccc(F)cc21,inconclusive: -83.7%
2,Cc1ccsc1C(=O)OCC(=O)N1CC(=O)Nc2ccccc21,inactive: 89.1%
3,Cc1cn(-c2cc(C(=O)Nc3ccc(C)c(NC(=O)N4CCNC4=O)c3)cc(C(F)(F)F)c2)cn1,inconclusive: 100%
4,CN(C)c1ccc(/C=N/n2cnn(Cc3ccccc3Cl)c2=S)cc1,inconclusive: 95.9%
5,Cc1cccc(Oc2nc(-c3ccncc3)nc3ccccc23)c1,inconclusive: 336%
6,O=C(NCCCCc1ccccc1)C1CC(c2ccc(C(F)(F)F)cc2)=NO1 (stereo not given),inconclusive: 102%
7,O=C1NCCCC1C(=O)N/N=C/c1ccc(Cl)cc1 (stereo not given),inconclusive: 63.8%
8,CNC(=S)N1CCc2cc(OC)c(OC)cc2C1,inconclusive: 115%
9,COc1cc2c(cc1OC)C1C(C(=O)Nc3ccccc3N3CCN(C)CC3)c3ccccc3C(=O)N1CC2 (stereo not given),inconclusive: 103%
10,C=CCNC(=O)CN(c1ccc(F)c(Cl)c1)S(C)(=O)=O,inactive: 107%
11,CCOC(=O)Cc1csc(NC(=O)/C=C/c2ccc(Br)o2)n1,inconclusive: 97.8%
12,Brc1ccc2ncnc(NCc3cccnc3)c2c1,inconclusive: 105%
13,CN1CCN(C(=S)SCc2nc(N)nc(Nc3ccc(F)cc3)n2)CC1,inconclusive: 74%
14,Cc1ccc(SCc2cc(=O)n(C)[nH]2)cc1,inconclusive: 107%
15,FC(F)(F)c1ccccc1-n1c(CN2CCCCC2)n[nH]c1=S,inconclusive: 82.2%
16,CCN(CC)CCn1c(C)nc2c(sc3nc4c(cc32)COC(C)(C)C4)c1=O,inconclusive: 122%
17,Cc1ccc(O)c(NC(=O)c2cc([N+](=O)[O-])ccc2Cl)c1,inconclusive: 121%
18,Cn1c(CCCOc2ccc(Cl)cc2Cl)nnc1SCC(=O)Nc1cccc(F)c1,inactive: 97.8%
19,Cc1c(NC(=O)CN2C(=O)c3ccc([N+](=O)[O-])cc3C2=O)c(=O)n(-c2ccccc2)n1C,inconclusive: 103%
20,COc1ccc(C(=O)CSc2nc3[nH]ncc3c(=O)[nH]2)cc1,inconclusive: 104%
21,O=C(Nc1nc(-c2cc(F)ccc2F)cs1)C1=NN(c2ccccc2)C(=O)CC1,inconclusive: 102%
22,O=C(COC(=O)c1cc(S(=O)(=O)NCc2ccccc2)ccc1O)c1cc2ccccc2o1,inconclusive: 98%
23,O=C(Nc1ccccc1C(F)(F)F)c1ncn[nH]1,inconclusive: 66.4%

row,Compound,binding response (% of control)
1,Cc1c([N+](=O)[O-])c2ccc(O)cc2n1-c1ccccc1,inconclusive: 96.7%
2,Cn1nc(C(F)(F)F)c2cc(C(=O)Nc3ccc(F)c(Cl)c3)sc21,inconclusive: 113%
3,O=C(COc1cccnc1[N+](=O)[O-])NCCc1ccc(F)cc1,inconclusive: 77.3%
4,COc1cc(C(CCN2CCOCC2)c2c(OC)cc(OC)c3c2OC(=O)CC3c2ccc(N(C)C)cc2)cc(OC)c1OC (stereo not given),inconclusive: 93.4%
5,COc1ccc(-c2cn3cc(C(F)(F)F)cc(Cl)c3n2)cc1,inconclusive: 86.5%
6,CN(C)C(=O)c1ccc(OCC(F)(F)F)nc1,inconclusive: 164%
7,O=C(CSC1CS(=O)(=O)c2cc([N+](=O)[O-])ccc21)NNC(=O)c1ccccc1 (stereo not given),inconclusive: 87.8%
8,C#CCCCCCCCCC(=O)NCCCC,inconclusive: 100%
9,NCCCCCC(=O)Nc1ccncc1,inconclusive: 95.8%
10,O=C(O)CCC(=O)Nc1ccc(Oc2ncnc3cc(Cl)ccc23)nc1,inconclusive: 94.3%
11,O=c1[nH]c2ccc(NC(=S)NCCc3ccccc3)cc2[nH]1,inconclusive: 103%
12,C[C@H](NC(N)=O)C(=O)OCC(=O)Nc1ccc(OC(F)F)cc1,inconclusive: 120%
13,CN(C)c1ccc(C(c2ccc(N(C)C)cc2)c2ccc([N+](=O)[O-])cc2)cc1,inconclusive: 462%
14,S=C(NCc1ccco1)N1CCN(c2ccccc2Cl)CC1,inconclusive: 104%
15,Cc1cc(S(=O)(=O)N2CCN(C(=O)CCC(=O)N3CCOCC3)CC2)ccc1Br,inconclusive: 98.5%
16,O=C(O)/C=C/C(=O)Nc1ccc(OC(F)(F)F)cc1,inconclusive: 114%
17,O=C1CCCc2ccccc2N1Cc1cccc(F)c1,inactive: 98.9%
18,COC(=O)Cn1c(=O)c2c(nc3n2CC(C)CN3c2ccc(C)c(C)c2)n(C)c1=O (stereo not given),inconclusive: 103%
19,COc1ccccc1N(CC(=O)NC1CCCC1)C(=O)c1csnn1,inactive: 101%
20,O=C(CNC(=O)C1CCCCC1)Nc1ccc(F)c(Cl)c1,inconclusive: 117%
21,CCOC(=O)NC(=O)c1cn(Nc2ncc(Cl)cc2C(F)(F)F)c(=O)[nH]c1=O,inconclusive: 85%
22,OC1(C(F)(F)F)CC(c2ccc3ccccc3c2)=NO1 (stereo not given),inconclusive: 70.4%
23,COCCn1c(SCC(=O)NNC(=O)c2ccc(OC)c(OC)c2)nc2ccccc2c1=O,inconclusive: 95%

row,Compound,binding response (% of control)
1,COc1ccccc1NC(=O)COc1ccc(C(=O)OCC(=O)NC(C)(C)C)cc1OC,inconclusive: 78%
2,Cc1cc(C)cc(C(=O)NCC(=O)OC(C)C(=O)N(C)c2ccccc2)c1 (stereo not given),inconclusive: 96.8%
3,O=C(CSc1c(F)c(F)cc(F)c1F)Nc1ccc(C2SCCS2)cc1,inconclusive: 126%
4,COc1ccccc1-c1nc(C#N)c(NCCCn2ccnc2)o1,inconclusive: 77.7%
5,Cc1nn(-c2ccccc2)nc1C(=O)Oc1cc(C(F)(F)F)nn1-c1ccccc1,inconclusive: 167%
6,O=S(=O)(Nc1ccc(-c2nc3cccnc3s2)cc1)c1cc(F)ccc1F,inconclusive: 366%
7,Cc1c(C(=O)N(Cc2ccc(N(C)C)cc2)C2CCS(=O)(=O)C2)oc2ccccc12 (stereo not given),inconclusive: 104%
8,COC(=O)c1nn(-c2ccc(F)cc2)ccc1=O,inconclusive: 197%
9,COc1ccccc1N1C(=O)CSC1=NC(=O)c1ccccc1,inconclusive: 60.2%
10,C/C(=N\NC(=O)Cc1c(C)[nH][nH]c1=O)c1ccc(Cl)c(Cl)c1,inconclusive: 138%
11,Cc1ccc(NC(=O)CSc2nc(C)c(Cc3ccccc3)c(=O)[nH]2)cc1C,inconclusive: 86.4%
12,Cc1cc(C)cc(NC(=O)COC(=O)c2cc(=O)[nH]c(=O)[nH]2)c1,inconclusive: 116%
13,CC(=O)N1c2c(cc(Br)cc2S(=O)(=O)N2CCN(C(=O)c3ccco3)CC2)CC1C (stereo not given),inactive: 101%
14,Cc1ccc(S(=O)(=O)N(C)CC(=O)NC2CCCC2)cc1,inactive: 98.3%
15,COc1ccc(-c2cccc(C3CC=CC4C3C(=O)N(Cc3ccccc3)C4c3cc(C)ccc3F)c2)cc1 (stereo not given),inconclusive: 91.7%
16,Cc1cccc(NC(=S)N2CCCC(c3nc4ccccc4[nH]3)C2)c1 (stereo not given),inactive: 106%
17,Cc1ccc(-c2ccc(/C=N/n3cnnc3)o2)cc1,inconclusive: 106%
18,COc1ccc(C(=O)NCC2CCCO2)cc1OC (stereo not given),inconclusive: 146%
19,COc1ccc(CNC(=O)C2CCCN2S(=O)(=O)c2ccc(F)cc2)cc1 (stereo not given),inactive: 105%
20,O=C(COC(=O)C1(c2ccc(Cl)cc2)CCCC1)NCc1ccco1,inconclusive: 108%
21,Cc1nn(CC2CC2)c(=O)n1-c1cccc(Cl)c1,inconclusive: 121%
22,O=S(=O)(NCCc1ccccc1)c1ccc(Cl)nc1,inactive: 102%
23,COCCNC(=O)C(=O)NCC1OCCN1S(=O)(=O)c1ccc2c(c1)OCCO2 (stereo not given),inconclusive: 93.2%

row,Compound,binding response (% of control)
1,COc1ccc2c(c1)c1nc(SCC(C)C)n(CCO)c(=O)c1n2C,active: 42.5%
2,COc1ccc(C2(C(=O)c3ccccc3)C(=O)c3ccccc3C2=O)cc1,inconclusive: 93.7%
3,CCNc1nc(NC(C)C)nc(Oc2ccc(/C=N/O)cc2)n1,inactive: 105%
4,Oc1ccc(C=Nc2cccc3ncccc23)c(O)c1,inactive: 97.5%
5,CCN(CC)S(=O)(=O)c1ccc(N2CCOCC2)c(NC(=O)c2ccc(NC(C)=O)cc2)c1,inconclusive: 115%
6,Cc1ccc(-c2nnc(CCC(=O)NCc3csc(C)n3)o2)s1,inconclusive: 98.5%
7,Cc1csc(NC(=O)c2ccco2)n1,inactive: 101%
8,CC(C)N(C(=S)Nc1cccnc1)c1ccccc1,inconclusive: 51.5%
9,CSc1sc(C(=O)NNC(C)=O)c2c1C=CCC2,inconclusive: 20.7%
10,COc1ccc(C2=NO[C@@H]3C(=O)N(Cc4ccccc4)C(=O)[C@H]23)c(OC)c1,inconclusive: 118%
11,CC(C)Cn1c(N)c(C(=O)CSc2ncnc3sc4c(c23)CCCC4)c(=O)n(C)c1=O,inactive: 98%
12,CCOC(=O)c1c(OCC)[nH]c2ccc(O)cc12,inactive: 101%
13,COc1ccc(Nc2cc(C(=O)N3CCc4ccccc4C3)c3ccccc3n2)c(OC)c1,inconclusive: 113%
14,Cc1oc(-c2ccc(Cl)cc2)cc1C(=O)/C(C#N)=C/Nc1ccccc1,inconclusive: 104%
15,COc1ccccc1NC(=O)c1c(Br)cnn1C,inconclusive: 116%
16,O=C(/C=C/c1ccc([N+](=O)[O-])cc1)NCCc1ccccc1,inconclusive: 102%
17,CCOC(=O)c1ccc(Oc2cn[nH]c2-c2ccc(O)cc2O)cc1,inconclusive: 97.8%
18,N#Cc1cc(NC(=O)c2ccc(F)cc2)c(=O)n2c1[nH]c1ccccc12,inactive: 99%
19,CC(=O)OCC(=O)[C@@]1(O)CC[C@H]2[C@@H]3CCC4=CC(=O)C=C[C@]4(C)[C@@]3(Cl)[C@@H](Cl)C[C@@]21C,inconclusive: 144%
20,CCOC(=O)c1c(C)[nH]c(C)c1C(=O)COc1ncnc2cc([N+](=O)[O-])ccc12,inactive: 95.8%
21,COc1cc(/C=C2\SC(=O)N(Cc3ccc(Cl)cc3)C2=O)cc([N+](=O)[O-])c1O,inconclusive: 104%

# As entered above.
# `CCOC(=O)c1ccc(Oc2cn[nH]c2-c2ccc(O)cc2O)cc1` | binding response (% of control): inconclusive: 97.8%
# `CCOC(=O)Cc1csc(NC(=O)/C=C/c2ccc(Br)o2)n1` | binding response (% of control): inconclusive: 97.8%
# `C=CCNC(=O)CN(c1ccc(F)c(Cl)c1)S(C)(=O)=O` | binding response (% of control): inactive: 107%
# `COC(=O)c1nn(-c2ccc(F)cc2)ccc1=O` | binding response (% of control): inconclusive: 197%
# `COc1cc(/C=C2\SC(=O)N(Cc3ccc(Cl)cc3)C2=O)cc([N+](=O)[O-])c1O` | binding response (% of control): inconclusive: 104%
